The record followed here is publication PMC12419465, “Photoresponsive molecular tweezers modulate Taspase 1 activity” (RSC Chemical Biology, 2025).

Molecules are shown by their SMILES.

The series can be described thus: Pull-down control without GST-Importin α (nonspecific binding to GSH beads). To be noted: 100 μM; GST-Importin α omitted, 2.2 μM inactive Taspase 1-His.

Turning to `Cc1nn(-c2ccc(C#Cc3ccc(-c4cn(CCOP(=O)(O)Oc5c6c(c(OP(=O)(O)O)c7c5C5CC7c7cc8c(cc75)C5CC8c7ccccc75)C5CC6c6cc7c(cc65)C5CC7c6ccccc65)nn4)cc3)cc2)c(C)c1N=Nc1ccc(C#Cc2ccc(-c3cn(CCOP(=O)(O)Oc4c5c(c(OP(=O)(O)O)c6c4C4CC6c6cc7c(cc64)C4CC7c6ccccc64)C4CC5c5cc6c(cc54)C4CC6c5ccccc54)nn3)cc2)cc1` [TWAAP4], the “Nonspecific binding to the GSH beads” value is listed as “displayed Taspase 1-His in the eluate”.

Consider `Cc1nn(-c2ccc(-c3cn(CCOP(=O)(O)Oc4c5c(c(OP(=O)(O)O)c6c4C4CC6c6cc7c(cc64)C4CC7c6ccccc64)C4CC5c5cc6c(cc54)C4CC6c5ccccc54)nn3)cc2)c(C)c1N=Nc1ccc(-c2ccc(-c3cn(CCOP(=O)(O)Oc4c5c(c(OP(=O)(O)O)c6c4C4CC6c6cc7c(cc64)C4CC7c6ccccc64)C4CC5c5cc6c(cc54)C4CC6c5ccccc54)nn3)cc2)cc1` [TWAAP3], for which the “Nonspecific binding to the GSH beads” value is on record as “no detectable nonspecific binding”.
